Numbering of substitutions follows the chain as printed. The list shows a part of the results. For some of these results: At the low end of the ranking the order means little.
What was measured:
Details in all cases: yeast three-hybrid, YBZ-1, SC-Leu-His + 0.5 mM 3-AT, 4 days
[1] = molecular target: T1, PUM1 PUF domain R3-RRR C935R + Q939R (UniProt Q14671)
T1 sequence: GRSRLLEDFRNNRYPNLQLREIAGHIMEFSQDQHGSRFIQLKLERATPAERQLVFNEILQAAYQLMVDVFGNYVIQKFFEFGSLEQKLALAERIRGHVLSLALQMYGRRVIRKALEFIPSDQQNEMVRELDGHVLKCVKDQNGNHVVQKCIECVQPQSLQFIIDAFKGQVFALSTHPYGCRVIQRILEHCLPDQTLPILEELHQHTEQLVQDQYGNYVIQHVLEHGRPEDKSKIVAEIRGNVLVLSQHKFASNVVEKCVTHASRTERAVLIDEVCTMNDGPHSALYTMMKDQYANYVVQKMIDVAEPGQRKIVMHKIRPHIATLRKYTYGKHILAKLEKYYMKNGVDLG

[2] = molecular target: T2, PUM1 PUF domain R3-RSA C935R + R936S + Q939A (UniProt Q14671)
T2 sequence: T1 sequence with R109S, R112A

[3] = molecular target: T3, PUM1 PUF domain R3-RSC C935R + R936S + Q939C (UniProt Q14671)
T3 sequence: T1 sequence with R109S, R112C

[4] = molecular target: T4, PUM1 PUF domain R3-RSF C935R + R936S + Q939F (Homo sapiens) (UniProt Q14671)
T4 sequence: T1 sequence with R109S, R112F

[5] = molecular target: T5, PUM1 PUF domain R3-RSG C935R + R936S + Q939G (UniProt Q14671)
T5 sequence: T1 sequence with R109S, R112G

[6] = molecular target: T6, PUM1 PUF domain R3-RSL C935R + R936S + Q939L (UniProt Q14671)
T6 sequence: T1 sequence with R109S, R112L

[7] = molecular target: T7, PUM1 PUF domain R3-RSR C935R + R936S + Q939R (UniProt Q14671)
T7 sequence: T1 sequence with R109S

[8] = molecular target: T8, PUM1 PUF domain R3-RSS C935R + R936S + Q939S (UniProt Q14671)
T8 sequence: T1 sequence with R109S, R112S

[9] = molecular target: T9, PUM1 PUF domain R3-RST C935R + R936S + Q939T (UniProt Q14671)
T9 sequence: T1 sequence with R109S, R112T

[10] = molecular target: T10, PUM1 PUF domain R3-RSV C935R + R936S + Q939V (UniProt Q14671)
T10 sequence: T1 sequence with R109S, R112V

[11] = molecular target: T11, PUM1 PUF domain R3-RSW C935R + R936S + Q939W (UniProt Q14671)
T11 sequence: T1 sequence with R109S, R112W

[12] = molecular target: T12, PUM1 PUF domain R3-RTC C935R + R936T + Q939C (UniProt Q14671)
T12 sequence: T1 sequence with R109T, R112C

[13] = molecular target: T13, PUM1 PUF domain R3-RTG C935R + R936T + Q939G (UniProt Q14671)
T13 sequence: T1 sequence with R109T, R112G

[14] = molecular target: T14, PUM1 PUF domain R3-RTM C935R + R936T + Q939M (UniProt Q14671)
T14 sequence: T1 sequence with R109T, R112M

[15] = molecular target: T15, PUM1 PUF domain R3-RTR C935R + R936T + Q939R (UniProt Q14671)
T15 sequence: T1 sequence with R109T

[16] = molecular target: T16, PUM1 PUF domain R3-RTV C935R + R936T + Q939V (UniProt Q14671)
T16 sequence: T1 sequence with R109T, R112V

[17] = molecular target: T17, PUM1 PUF domain R3-RTW C935R + R936T + Q939W (UniProt Q14671)
T17 sequence: T1 sequence with R109T, R112W

[18] = molecular target: T18, PUM1 PUF domain R3-RVA C935R + R936V + Q939A (UniProt Q14671)
T18 sequence: T1 sequence with R109V, R112A

[19] = molecular target: T19, PUM1 PUF domain R3-RVM C935R + R936V + Q939M (UniProt Q14671)
T19 sequence: T1 sequence with R109V, R112M

[20] = molecular target: T20, PUM1 PUF domain R3-RVQ C935R + R936V (UniProt Q14671)
T20 sequence: T1 sequence with R109V, R112Q

[21] = molecular target: T21, PUM1 PUF domain R3-RVR C935R + R936V + Q939R (UniProt Q14671)
T21 sequence: T1 sequence with R109V

[22] = molecular target: T22, PUM1 PUF domain R3-RVS C935R + R936V + Q939S (UniProt Q14671)
T22 sequence: T1 sequence with R109V, R112S

[23] = molecular target: T23, PUM1 PUF domain R3-RVT C935R + R936V + Q939T (UniProt Q14671)
T23 sequence: T1 sequence with R109V, R112T

[24] = molecular target: T24, PUM1 PUF domain R3-SCD C935S + R936C + Q939D (UniProt Q14671)
T24 sequence: T1 sequence with R108S, R109C, R112D

[25] = molecular target: T25, PUM1 PUF domain R3-SCP C935S + R936C + Q939P (UniProt Q14671)
T25 sequence: T1 sequence with R108S, R109C, R112P

[26] = molecular target: T26, PUM1 PUF domain R3-SEE C935S + R936E + Q939E (UniProt Q14671)
T26 sequence: T1 sequence with R108S, R109E, R112E

[27] = molecular target: T27, PUM1 PUF domain R3-SGE C935S + R936G + Q939E (UniProt Q14671)
T27 sequence: T1 sequence with R108S, R109G, R112E

[28] = molecular target: T28, PUM1 PUF domain R3-SHG C935S + R936H + Q939G (UniProt Q14671)
T28 sequence: T1 sequence with R108S, R109H, R112G

[29] = molecular target: T29, PUM1 PUF domain R3-SIR C935S + R936I + Q939R (UniProt Q14671)
T29 sequence: T1 sequence with R108S, R109I

[30] = molecular target: T30, PUM1 PUF domain R3-SPS C935S + R936P + Q939S (UniProt Q14671)
T30 sequence: T1 sequence with R108S, R109P, R112S

[31] = molecular target: T31, PUM1 PUF domain R3-SPT C935S + R936P + Q939T (UniProt Q14671)
T31 sequence: T1 sequence with R108S, R109P, R112T

[32] = molecular target: T32, PUM1 PUF domain R3-SPW C935S + R936P + Q939W (UniProt Q14671)
T32 sequence: T1 sequence with R108S, R109P, R112W

[33] = molecular target: T33, PUM1 PUF domain R3-SRA C935S + Q939A (UniProt Q14671)
T33 sequence: T1 sequence with R108S, R112A

[34] = molecular target: T34, PUM1 PUF domain R3-SRG C935S + Q939G (UniProt Q14671)
T34 sequence: T1 sequence with R108S, R112G

[35] = molecular target: T35, PUM1 PUF domain R3-SRH C935S + Q939H (UniProt Q14671)
T35 sequence: T1 sequence with R108S, R112H

[36] = molecular target: T36, PUM1 PUF domain R3-SRK C935S + Q939K (UniProt Q14671)
T36 sequence: T1 sequence with R108S, R112K

[37] = molecular target: T37, PUM1 PUF domain R3-SRL C935S + Q939L (UniProt Q14671)
T37 sequence: T1 sequence with R108S, R112L

## GGCUAGAACUAGUGGAUCCCCCGGCGCCCGGCGGCUCGAGCCCGGGUAAGUGUAACUAGUCUGCAUGCCGCCGGGCGCCAUGCCUGCAGGUCGACUCUAGAAAACAUG
[1]
  binding signal (log2 enrichment (interaction score)): -6.39
[2]
  binding signal (log2 enrichment (interaction score)): -2.98
[3]
  binding signal (log2 enrichment (interaction score)): < -7.67
[4]
  binding signal (log2 enrichment (interaction score)): -1.3
[5]
  binding signal (log2 enrichment (interaction score)): -4.67
[6]
  binding signal (log2 enrichment (interaction score)): -6.88
[7]
  binding signal (log2 enrichment (interaction score)): < -8.7
[8]
  binding signal (log2 enrichment (interaction score)): < -8.98
[9]
  binding signal (log2 enrichment (interaction score)): -2.33
[10]
  binding signal (log2 enrichment (interaction score)): < -9.07
[11]
  binding signal (log2 enrichment (interaction score)): < -6.78
[12]
  binding signal (log2 enrichment (interaction score)): < -6.63
[13]
  binding signal (log2 enrichment (interaction score)): -5.28
[14]
  binding signal (log2 enrichment (interaction score)): < -6.85
[15]
  binding signal (log2 enrichment (interaction score)): < -6.83
[16]
  binding signal (log2 enrichment (interaction score)): < -8.46
[17]
  binding signal (log2 enrichment (interaction score)): < -8.59
[18]
  binding signal (log2 enrichment (interaction score)): -4.84
[19]
  binding signal (log2 enrichment (interaction score)): < -7.89
[20]
  binding signal (log2 enrichment (interaction score)): < -9.22
[21]
  binding signal (log2 enrichment (interaction score)): -7.55
[22]
  binding signal (log2 enrichment (interaction score)): < -8.22
[23]
  binding signal (log2 enrichment (interaction score)): < -8.84
[24]
  binding signal (log2 enrichment (interaction score)): < -6.29
[25]
  binding signal (log2 enrichment (interaction score)): < -7.58
[26]
  binding signal (log2 enrichment (interaction score)): < -9.69
[27]
  binding signal (log2 enrichment (interaction score)): < -8.14
[28]
  binding signal (log2 enrichment (interaction score)): < -8.73
[29]
  binding signal (log2 enrichment (interaction score)): < -10.4
[30]
  binding signal (log2 enrichment (interaction score)): < -7.52
[31]
  binding signal (log2 enrichment (interaction score)): < -6.47
[32]
  binding signal (log2 enrichment (interaction score)): < -9.38
[33]
  binding signal (log2 enrichment (interaction score)): < -9.28
[34]
  binding signal (log2 enrichment (interaction score)): -4.16
[35]
  binding signal (log2 enrichment (interaction score)): -6.17
[36]
  binding signal (log2 enrichment (interaction score)): -5.78
[37]
  binding signal (log2 enrichment (interaction score)): < -8.87

Reference: publication PMC8384837
